The values below come from paper PMC6706451, “Crystal structure and substrate-induced activation of ADAMTS13” (Nature Communications, 2019).

Chains of the proteins cited; added tags and fusions are not shown. Lines headed by an entry give the natural chain unless they say otherwise; changes in a name come on top. A line that says so, or that is headed by a name, gives the form on record, which may keep a tag or linker. Residues count along the entry.
VWF96-MP (P04275, form named): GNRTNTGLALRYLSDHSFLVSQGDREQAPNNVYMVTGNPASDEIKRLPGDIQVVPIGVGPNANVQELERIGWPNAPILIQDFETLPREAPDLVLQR
UniProt Q76LX8, residues 75-1427: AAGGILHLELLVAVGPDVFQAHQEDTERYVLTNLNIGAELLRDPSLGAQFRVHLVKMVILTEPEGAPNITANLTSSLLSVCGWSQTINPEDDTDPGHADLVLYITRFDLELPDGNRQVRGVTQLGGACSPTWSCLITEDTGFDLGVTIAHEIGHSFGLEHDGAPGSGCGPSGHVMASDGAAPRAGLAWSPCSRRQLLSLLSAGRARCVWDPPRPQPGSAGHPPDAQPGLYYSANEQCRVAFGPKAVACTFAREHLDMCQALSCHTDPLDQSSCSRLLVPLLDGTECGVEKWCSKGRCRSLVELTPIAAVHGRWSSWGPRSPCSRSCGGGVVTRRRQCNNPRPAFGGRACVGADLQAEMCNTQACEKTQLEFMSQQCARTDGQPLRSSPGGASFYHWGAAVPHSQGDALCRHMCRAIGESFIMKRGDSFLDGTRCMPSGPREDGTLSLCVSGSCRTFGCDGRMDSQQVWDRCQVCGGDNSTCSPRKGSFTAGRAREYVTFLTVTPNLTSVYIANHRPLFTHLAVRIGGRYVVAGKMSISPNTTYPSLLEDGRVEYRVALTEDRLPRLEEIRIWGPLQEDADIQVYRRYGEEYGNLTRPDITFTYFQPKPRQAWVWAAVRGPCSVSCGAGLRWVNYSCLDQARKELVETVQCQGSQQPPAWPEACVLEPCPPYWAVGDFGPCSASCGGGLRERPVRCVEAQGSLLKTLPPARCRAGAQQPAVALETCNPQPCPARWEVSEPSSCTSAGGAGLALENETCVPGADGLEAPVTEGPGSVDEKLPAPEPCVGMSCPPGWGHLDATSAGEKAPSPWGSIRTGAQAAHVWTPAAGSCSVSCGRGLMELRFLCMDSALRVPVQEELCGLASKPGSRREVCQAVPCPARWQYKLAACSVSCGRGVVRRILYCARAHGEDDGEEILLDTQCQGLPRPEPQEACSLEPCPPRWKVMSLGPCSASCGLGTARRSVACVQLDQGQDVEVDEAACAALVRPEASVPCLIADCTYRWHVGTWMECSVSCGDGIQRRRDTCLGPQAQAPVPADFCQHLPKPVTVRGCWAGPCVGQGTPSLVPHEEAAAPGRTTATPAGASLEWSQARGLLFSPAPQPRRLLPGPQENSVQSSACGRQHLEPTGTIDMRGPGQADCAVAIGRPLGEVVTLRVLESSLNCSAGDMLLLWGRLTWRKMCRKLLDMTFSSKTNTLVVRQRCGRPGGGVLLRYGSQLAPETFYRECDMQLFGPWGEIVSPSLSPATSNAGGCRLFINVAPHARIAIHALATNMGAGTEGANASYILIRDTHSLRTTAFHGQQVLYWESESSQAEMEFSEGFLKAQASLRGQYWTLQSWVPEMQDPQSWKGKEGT

No constants are given. Whether binding was seen depends on the method and setting. Some entries that bind do so weakly or less than the wild type.

In this assay the target is VWF96-MP (human) (UniProt P04275). Kind of assay: ELISA; plate binding: 100 nM VWF96 or variant adsorbed on 96-well plates (50 mM sodium bicarbonate pH 9.6, overnight, 4 °C); 0-600 nM ADAMTS13 in PBS/1% BSA/80 mM EDTA, room temperature, 1.5 h (legend: 1 h); detected with biotinylated anti-ADAMTS13 TSP2-4 polyclonal antibody; one-site fit; apparent KD; only the target purified.

With “ADAMTS13 (from UniProt Q76LX8 75-1427) (enzyme)”, the binding result was “binds”.
